Reference: patent US12195456B1, “Single molecules having mixed CDK4, CDK6, PLK1 targeting properties” (priority 2019, dated 2025)
For at least one compound, name, drawing or mass did not settle the structure.

What was measured:
[1] = system: SUM159 lung metastasis; assay: Preclinical lung metastasis model (tail vein injection of TNBC cells); assay type: in vivo; settings: NSG mice, daily I.P. 50 mg/kg for 2 weeks
Procedure: To then functionally assess our lead in a preclinical model of tumor metastasis, immune-deficient non-obese diabetic scid gamma (NSG) mice were injected intravenously with 10^6 TNBC cells. […] Lungs were collected and stained with Bouin's solution and, the numbers of lung metastatic nodules were quantified. In vivo studies: All mice were housed and handled in accordance to the approved guidelines of the Canadian Council on Animal Care (CCAC) “Guide to the Care and Use of Experimental Animals” and under the conditions and procedures approved by the Animal Care Committee of McGill University (AUP #7497). The NSG mouse breeders were purchased from Jackson Laboratory (California, US). Female and male NSG mice between 7 and 9 weeks of age were bred and maintained in the animal facility of the Research Institute of the McGill University Health Center, as per the guidelines of the McGill University Animal Care Committee. Intravenous injection model: cells (1×106/each) were injected by tail vein route to develop lung metastases. The mice were euthanized with a maximum of 42-day (SUM159) post cancer cells injection. The lung tissues were counted for metastases nodules post Bouin's solution fixation.

[2] = system: prostate cancer cells; assay: In cellulo testing, prostate cancer; assay type: cell-based
Procedure: (§1) Cell Culture: All the cell lines used were cultured at 37° C. in 5% CO2. HEK293T and MDA were maintained in Dulbecco's Modified Eagle Medium (DMEM) (Wisent Bio) with 10% fetal bovine serum (FBS) (Gibco). SUM159 was maintained in Ham's F-12 media with 5% FBS, 5 μg/mL insulin and 1 μg/mL hydrocortisone (Wisent Bio). HPAF-II was maintained in Eagle's Minimum Essential Medium (EMEM) (Wisent Bio) with 10% FBS. PC-3 was maintained in F-12K medium with 10% FBS.
(§2) In vitro growth inhibition assay: Growth inhibitory potency was evaluated using the SRB assay. Briefly, cells were plated in 96-well in triplicate and treated with drugs (0.0065 μM to 100 μM) 24 h after seeding. Following drug treatment, the cells were fixed using 50 μl of cold TCA (50%) for 1 h at 4° C., washed five times with tap water, and stained for 30 min at room temperature with SRB (0.4%) in acetic acid (0.5%). The plates were subsequently rinsed five times with acetic acid (1%) and allowed to air dry. The resulting purple residue was dissolved in Tris base (200 μl, 10 mM), and optical densities read on a ELx808 BioTek microplate reader. […] values were determined using the GraphPad Prism software.

[3] = system: SUM159 Rb-positive TNBC cells; assay: Cell cycle progression, Rb-positive TNBC cells; assay type: cell-based, human
[4] = system: pancreatic cancer cells; assay: In cellulo testing, pancreatic cancer; assay type: cell-based
Procedure: as §1, §2

[5] = system: MDA-MB-468 Rb-deficient TNBC cells; assay: Cell cycle progression, Rb-deficient TNBC cells; assay type: cell-based
[6] = system: Rb-deficient MDA-MB-468 TNBC cells; assay: Apoptosis assay (AnnexinV/PI), MDA-MB-468; assay type: cell-based
Procedure: (§3) Apoptosis assay: Apoptotic rates were analyzed and quantified by flow cytometry following AnnexinV/PI staining on SUM159 and MDA-MB-468 breast cancer cells.

[7] = system: patient-derived xenograft model of breast cancer; settings: cited from earlier work
[8] = system: Rb-positive SUM159 TNBC cells; assay: Apoptosis assay (AnnexinV/PI), SUM159; assay type: cell-based, human
Procedure: as §3

[9] = system: SUM159 TNBC xenografts; assay: Orthotopic SUM159 TNBC xenograft (mammary fat pad); assay type: in vivo, NSG mice; settings: after end of the two-week 50 mg/kg i.p. treatment
Procedure: We further assessed our compound on breast cancer tumorigenesis in vivo, through orthotopic transplantation of SUM159 TNBC cells into the mammary fat pad of NSG mice. […] Drugs were administered through i.p. daily injections for two weeks (50 mg/kg) and tumor volumes were measured, as per our team optimized protocol^10,19.
In vivo studies: All mice were housed and handled in accordance to the approved guidelines of the Canadian Council on Animal Care (CCAC) “Guide to the Care and Use of Experimental Animals” and under the conditions and procedures approved by the Animal Care Committee of McGill University (AUP #7497). The NSG mouse breeders were purchased from Jackson Laboratory (California, US). […]
Xenograft model: Human breast cancer cells, SUM159 (1×10^6/mouse) were diluted in 1:1 with Matrigel and then inoculated in 8-week old, female NSG mice by mammary fat pad route to generate breast cancer tumor. Tumor sizes were measured with a digital electronic caliper three times per week to reach maximum volume of 1000 mm3 prior to euthanasia. Tumor volumes were calculated according to the following formula: [4/3×π×(Length/2)×(Width/2)2] to generate a growth curve.

For `CC(=O)c1c(C)c2cnc(Nc3ccc(N4CCNCC4)cn3)nc2n(C2CCCC2)c1=O` [palbociclib, reference compound], the “lung colonization / lung metastatic nodules” value [1] was “only showed partial effect”, the activity in cellulo [2] was “but not palbociclib, to be very active” and the “effect on cell cycle progression” value [3] was “induce G1 arrest”. For the same molecule, the activity in cellulo [4] was “but not palbociclib, to be very active”, the “effect on cell cycle progression” value [5] was “remained in the G1 phase” and the pro-apoptotic effect [6] was “Only KP108 exerts a significant pro-apoptotic effect”. The metastatic burden [7] was “partially reduce the metastatic burden”, the pro-apoptotic effect [8] was “Only KP108 exerts a significant pro-apoptotic effect” and the “tumor growth once injections were stopped” value [9] was “immediately recovered and regrew quickly once the injections stopped”.
